# Primary screen of a compound library

By UniProt entry, the sequences of proteins in these tests, tags left out. Residues count along the entry.
UniProt A4I591, 1-473: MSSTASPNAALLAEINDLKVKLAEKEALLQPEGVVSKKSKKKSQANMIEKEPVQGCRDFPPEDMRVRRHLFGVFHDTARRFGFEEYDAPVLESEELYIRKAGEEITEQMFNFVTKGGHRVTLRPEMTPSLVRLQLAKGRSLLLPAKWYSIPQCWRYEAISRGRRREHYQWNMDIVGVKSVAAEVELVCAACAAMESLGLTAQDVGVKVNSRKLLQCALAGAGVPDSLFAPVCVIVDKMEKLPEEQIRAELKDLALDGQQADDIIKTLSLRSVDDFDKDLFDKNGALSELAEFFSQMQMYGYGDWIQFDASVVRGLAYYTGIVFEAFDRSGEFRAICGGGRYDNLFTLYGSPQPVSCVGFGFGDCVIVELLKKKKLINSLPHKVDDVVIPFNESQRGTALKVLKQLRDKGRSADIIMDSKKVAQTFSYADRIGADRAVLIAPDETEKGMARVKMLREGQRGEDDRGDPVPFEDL
UniProt P9WPC5, whole entry: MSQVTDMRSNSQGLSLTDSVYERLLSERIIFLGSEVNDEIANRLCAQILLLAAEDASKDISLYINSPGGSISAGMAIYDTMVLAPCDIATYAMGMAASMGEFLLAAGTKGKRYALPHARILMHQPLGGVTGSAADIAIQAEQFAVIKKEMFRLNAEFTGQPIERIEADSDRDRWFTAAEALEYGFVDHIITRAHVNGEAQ
UniProt P9WPC3, whole entry partner: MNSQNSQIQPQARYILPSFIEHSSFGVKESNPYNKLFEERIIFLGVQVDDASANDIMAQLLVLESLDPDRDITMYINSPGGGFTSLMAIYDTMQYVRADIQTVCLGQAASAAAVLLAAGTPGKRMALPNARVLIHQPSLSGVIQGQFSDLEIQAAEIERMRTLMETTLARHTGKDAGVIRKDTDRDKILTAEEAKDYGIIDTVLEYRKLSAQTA
UniProt Q4DA54, 1-478: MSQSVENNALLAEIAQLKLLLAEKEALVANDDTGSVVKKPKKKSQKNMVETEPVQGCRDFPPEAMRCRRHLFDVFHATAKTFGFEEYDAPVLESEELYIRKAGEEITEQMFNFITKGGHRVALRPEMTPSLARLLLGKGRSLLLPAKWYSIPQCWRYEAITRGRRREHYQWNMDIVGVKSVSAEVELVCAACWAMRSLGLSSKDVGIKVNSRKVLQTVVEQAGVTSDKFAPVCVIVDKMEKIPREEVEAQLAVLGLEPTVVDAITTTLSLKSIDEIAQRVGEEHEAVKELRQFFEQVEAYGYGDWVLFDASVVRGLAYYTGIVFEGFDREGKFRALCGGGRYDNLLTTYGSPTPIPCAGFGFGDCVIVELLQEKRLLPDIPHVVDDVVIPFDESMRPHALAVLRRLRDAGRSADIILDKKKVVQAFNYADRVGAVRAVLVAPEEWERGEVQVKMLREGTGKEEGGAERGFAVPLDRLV

Data taken from ChEMBL document CHEMBL3988442, “University of Dundee, Small-Polar-MMV Screening Library” (2021).

Toxoplasma: 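Assay of Toxoplasma gondii numbers, read through their beta-galactosidase reporter with a colour substrate. Compounds at 10 µM. The record gives no direction; the compounds picked for IC50 retests had high values, so higher reads as fewer parasites. Of about 67,000 compounds tested this way, about 260 (0.38%) reached 50% or more in at least one test.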
T. brucei: 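Whole-parasite assay of Trypanosoma brucei over 72 hours; the read-out is not stated. Tested at 30 µM. Direction is inferred from retests: higher values go with stronger inhibition. Values scatter widely below zero; nearly all retest evidence comes from the higher of the two concentrations used. Size under these conditions: about 64,000 compounds, about 940 of them at 50% or above in at least one test.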
LiHisRS: 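Enzyme assay of histidyl-tRNA synthetase; the read-out is not stated. Target: Histidine-tRNA ligase, Leishmania infantum (UniProt A4I591). Compounds at 30 µM. The record gives no direction; compounds that gave an IC50 in retests scored well above the rest, so higher reads as stronger inhibition. The assay is labelled LdHisRS but filed under L. infantum. Of about 69,000 compounds tested this way, about 410 (0.6%) reached 50% or more in at least one test.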
ClpP1P2: 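ClpP1P2, Mycobacterium tuberculosis (UniProt P9WPC5 and UniProt P9WPC3). Protease assay of ClpP1P2, read by the AMC dye that it sets free. Concentration: 50 µM. Direction is inferred from only a few compounds that gave an IC50; most scored high, so higher reads as stronger inhibition. Most other retested compounds had strongly negative values. About 69,000 compounds were tested under these conditions; 0.015% (about 10) showed 50% or more at least once.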
TcHisRS: 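Enzyme assay of histidyl-tRNA synthetase; the read-out is not stated. Target: Histidine-tRNA ligase, Trypanosoma cruzi CL Brener (UniProt Q4DA54). Compounds at 30 µM. Direction is inferred from retests: higher values go with stronger inhibition. Of about 69,000 compounds tested this way, about 31 (0.045%) reached 50% or more in at least one test.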

Values are the deposited “Percent Effect”, in %. The controls that fix the scale are not given in the record; negative values are as filed. This is an unselected part of the compounds tested.

For CC(C)(C)C(=O)NCCNCc1ccc(Cl)c2cccnc12 the result was Toxoplasma: -3.335%; T. brucei: 25.26%; LiHisRS: 19.4%; ClpP1P2: 0.1015%; TcHisRS: 5.319%. For O=C(O)C(F)(F)F.[H][C@]12CCN(C(=O)C3CC3)CC[C@@]1([H])S(=O)(=O)CCN2Cc1cccc(C)n1 the result was Toxoplasma: 5.48%; T. brucei: -77.05%. CCc1nnc(Nc2cccc(C3CCN(c4cnccn4)CC3)n2)s1 gave Toxoplasma: 11.82%; T. brucei: -28.05%; LiHisRS: 12%; ClpP1P2: 7.542%; TcHisRS: 7.491%. For COc1ccc(CN2CCc3[nH]nc(C(=O)N(C)C)c3C2)cc1 the result was LiHisRS: 13.46%; ClpP1P2: -2.639%; TcHisRS: 3.883%. For NS(=O)(=O)c1ccc(NCc2ccccc2F)cc1C(F)(F)F the result was Toxoplasma: 0.05804%; T. brucei: 0.3962%; LiHisRS: -7.895%; ClpP1P2: -16.37%; TcHisRS: 9.497%. Result for O=C1NCC[C@]12CN(Cc1ccsc1)C[C@H]2c1ccccc1 was Toxoplasma: 15.04%; T. brucei: -102.4%; LiHisRS: 17.54%; ClpP1P2: -17.42%; TcHisRS: 5.464%.

CC(=O)N1CCc2c(nc(N(C)C)nc2NCCC2CCCCO2)C1 (stereo not drawn) gave Toxoplasma: -3.496%; T. brucei: -22.91%; LiHisRS: 4.286%; ClpP1P2: -8.106%; TcHisRS: 3.191%. With CCN(CC(C)C#N)C(=O)CNc1cc(Cl)ccc1C(N)=O (stereo not drawn) the screen gave Toxoplasma: 14.25%; T. brucei: -44%; LiHisRS: 9.574%; ClpP1P2: -61.57%; TcHisRS: 11.11%. Result for O=C(O)C(F)(F)F.O=C1CCC2(CCN(c3ncc(F)cn3)CC2)N1Cc1ccncc1 was Toxoplasma: 1.129%; T. brucei: -36.71%. CC(=O)Nc1ccc(CNC(=O)CNCc2sc(C)nc2C)cc1 gave Toxoplasma: -1.072%; T. brucei: -71.21%; LiHisRS: -1.961%; ClpP1P2: 16.88%; TcHisRS: -3.704%. For O=C(NCCNc1cccnc1)C(c1cccnc1)N1CCCC1 (stereo not drawn) the result was Toxoplasma: -9.074%; T. brucei: 23.44%; LiHisRS: 27.42%; ClpP1P2: -2.414%; TcHisRS: 12.34%. Result for CN(Cc1ccc(F)cc1)CC1(O)CCN(C(=O)c2ccsc2)C1 (stereo not drawn) was Toxoplasma: 4.962%; T. brucei: -20.42%; LiHisRS: -7.292%; ClpP1P2: -0.08056%; TcHisRS: -5.319%.

Result for CCOCc1nc(-c2ccc(F)cc2Cl)n(C)n1 was Toxoplasma: -16.42%; T. brucei: 4.218%; LiHisRS: 6.993%; ClpP1P2: 5.47%; TcHisRS: 5.473%. O=C(CC(F)(F)F)N1CCc2onc(Cn3cccn3)c2C1 gave Toxoplasma: 4.221%; T. brucei: 40.99%; LiHisRS: -3.636%; ClpP1P2: 6.362%; TcHisRS: -4.132%. Result for CN(Cc1cccs1)C(=O)CS(=O)(=O)Cc1ccc(Cl)c(Cl)c1 was Toxoplasma: -2.776%; T. brucei: -88.42%; LiHisRS: 16%; ClpP1P2: 13.16%; TcHisRS: -8.679%. NCc1cccc(NC(=O)CCN2CCOCC2)c1 read Toxoplasma: 1.033%; T. brucei: -33.99%; LiHisRS: 5.181%; ClpP1P2: 10.07%; TcHisRS: -0.5525%. Result for CCCC(=O)N(CCCN1CCOCC1)c1nc2c(C)c(C)ccc2s1 was LiHisRS: 17.39%; ClpP1P2: 6.228%; TcHisRS: 8.247%. With O=C([C@H]1C[C@@H]2CN(c3ncc(F)cn3)C[C@H]1O2)N1CCCC1 the screen gave LiHisRS: 7.921%; ClpP1P2: -6.061%; TcHisRS: 0.5025%.

[H][C@@]12C[C@@H](OCc3ccccc3)C[C@]1([H])CN(Cc1cccnc1)C2 gave Toxoplasma: -10.23%; T. brucei: 51.09%. Cc1cnn(CC2CCCCN2C(=O)c2csc(C)n2)c1 (stereo not drawn) read Toxoplasma: 0.0753%; T. brucei: -20.14%; LiHisRS: 6.087%; ClpP1P2: -8.659%; TcHisRS: 3.38%. For CCN(CC)Cc1nc2c(o1)CN(C(=O)c1ccc3[nH]ccc3c1)C2.O=CO the result was Toxoplasma: -9.278%. For Cc1nc(CN2CCCC(NCCOc3cccc(C#N)c3)C2)no1 (stereo not drawn) the result was Toxoplasma: -3.37%; LiHisRS: 11.86%; ClpP1P2: -4.619%; TcHisRS: 1.714%. COCCNC(=O)Cn1ccc2sc(C)cc2c1=O gave Toxoplasma: -14.9%; T. brucei: -14.87%; LiHisRS: 4.494%; ClpP1P2: -13.14%; TcHisRS: 3.518%. [H][C@@]12CCN(c3ncccn3)C[C@@]1([H])[C@H](C(=O)N(C)C)CCO2 gave Toxoplasma: 3.818%; T. brucei: -8.079%.

CCC(C)(CC(=O)OC)NCc1noc(C)n1 (stereo not drawn) read Toxoplasma: 11.21%; T. brucei: -38.39%; LiHisRS: 5.882%; ClpP1P2: -21.86%; TcHisRS: 2.469%.